{"source": "paper PMC8015229", "about": "“Focus on Human Monoamine Transporter Selectivity. New Human DAT and NET Models, Experimental Validation, and SERT Affinity Exploration” (ACS Chemical Neuroscience, 2020)", "origin": "cited, not measured here", "key": {"[1]": {"molecular_target": "NET", "settings": "binding affinity for human transporters; cited from earlier work"}, "[2]": {"molecular_target": "DAT", "settings": "binding affinity for human transporters; cited from earlier work"}}}
{"smiles": "CNCCCC12CCC(c3ccccc31)c1ccccc12", "note": "[compound 7, maprotiline]", "values": [{"measurement": "NET pKi exp", "setting": "[1]", "result": 7.95}, {"measurement": "DAT pKi exp", "setting": "[2]", "result": 6}]}
